Assay results: paper PMC11077971 (mBio, 2024)
No constants are given. Whether binding was seen depends on the method and setting. Some results given as binding are weak or reduced against the parent protein; the word gives no strength.

B1: BC1 with the E408A mutation (enzyme, UniProt A9W9X0 1-596)
chain: MFRTILVANRGEIALRVMRACRELGLRCVAVYSEADRDAPHVAYADDAFLIGPPSPAESYLNIDAIIRAAKATGAEAIHPGYGFLAENASFVRAVTAAGLIFIGPPAEAMERMGGKTAARREATAAGVPVVPGVLEPVTDAAEVRRLGKEFGYPIAIKAVGGGGGRGLRVVRSPEEVDEAFAAARREAEVAFKNGELYVEKYLDDPRHIEIQVLADRYGNAVALGERDCSVQRRHQKLIEECPSPALTPELRAEMGAAAVRLAKAVGYVSAGTLEFLFQDGRYYFLEMNTRIQVEHTVTEMVYGIDLVAAQIRIAQGEKLWFKQEDVVPRGHAIECRINAEDPLHNFRPALGTIGEYHEPVGFGVRVDSGVRAYYTVPSHYDSLLAKLITWGSDRQEAIARMRRALAAYRIEGVTTIIPFHQAALEHPVFTAGAATVNFIPRHPELFSRAAELTPPTAASAGAEPAPEPRRFTIEVNGRRFGVAVFGDGMNATPVASPSRSAPARRAAPKKTTLAAPVDAVISPIQGRVVAVRVAHGQQVEAGQVLFIVEAMKMENEITAPHSGTIAEVRVEVGTTVEAGAMLATYQNTANNTNGK
B2: BC1E408AΔBCCP^β-hairpin (enzyme, UniProt A9W9X0)
chain: MFRTILVANRGEIALRVMRACRELGLRCVAVYSEADRDAPHVAYADDAFLIGPPSPAESYLNIDAIIRAAKATGAEAIHPGYGFLAENASFVRAVTAAGLIFIGPPAEAMERMGGKTAARREATAAGVPVVPGVLEPVTDAAEVRRLGKEFGYPIAIKAVGGGGGRGLRVVRSPEEVDEAFAAARREAEVAFKNGELYVEKYLDDPRHIEIQVLADRYGNAVALGERDCSVQRRHQKLIEECPSPALTPELRAEMGAAAVRLAKAVGYVSAGTLEFLFQDGRYYFLEMNTRIQVEHTVTEMVYGIDLVAAQIRIAQGEKLWFKQEDVVPRGHAIECRINAEDPLHNFRPALGTIGEYHEPVGFGVRVDSGVRAYYTVPSHYDSLLAKLITWGSDRQEAIARMRRALAAYRIEGVTTIIPFHQAALEHPVFTAGAATVNFIPRHPELFSRAAELTPPTAASAGAEPAPEPRRFGDGMNATPVASPSRSAPARRAAPKKTTLAAPVDAVISPIQGRVVAVRVAHGQQVEAGQVLFIVEAMKMENEITAPHSGTIAEVRVEVGTTVEAGAMLATYQNTANNTNGK

Columns and labels:
[1] = target: BC1 with the E408A mutation (Chloroflexus aurantiacus J-10-fl) (UniProt A9W9X0); assay: SEC; gel filtration of BC1 dimer interface mutants (Fig. S6D); both purified
[2] = target: BC1E408AΔBCCP^β-hairpin (Chloroflexus aurantiacus J-10-fl) (UniProt A9W9X0); assay: AUC + SEC; sedimentation velocity, 42,000 rpm, 20°C, initial A280 ~0.7, Sedfit; gel filtration on a Superdex 200 column; both purified

| binding [1] | binding [2] | Binder |
| --- | --- | --- |
| binds |  | B1 |
|  | no binding | B2 |
